From publication PMC4879868 come the findings set out here.

Results are given in words; binding and its absence hold for the method and conditions named. Binding seen in cells or lysates may run through a third protein. A result given as binding can be weak or reduced; the word gives no strength.

The target of test [1] is T1, BirA-SH3TC2 (UniProt Q8TF17).
T1 sequence: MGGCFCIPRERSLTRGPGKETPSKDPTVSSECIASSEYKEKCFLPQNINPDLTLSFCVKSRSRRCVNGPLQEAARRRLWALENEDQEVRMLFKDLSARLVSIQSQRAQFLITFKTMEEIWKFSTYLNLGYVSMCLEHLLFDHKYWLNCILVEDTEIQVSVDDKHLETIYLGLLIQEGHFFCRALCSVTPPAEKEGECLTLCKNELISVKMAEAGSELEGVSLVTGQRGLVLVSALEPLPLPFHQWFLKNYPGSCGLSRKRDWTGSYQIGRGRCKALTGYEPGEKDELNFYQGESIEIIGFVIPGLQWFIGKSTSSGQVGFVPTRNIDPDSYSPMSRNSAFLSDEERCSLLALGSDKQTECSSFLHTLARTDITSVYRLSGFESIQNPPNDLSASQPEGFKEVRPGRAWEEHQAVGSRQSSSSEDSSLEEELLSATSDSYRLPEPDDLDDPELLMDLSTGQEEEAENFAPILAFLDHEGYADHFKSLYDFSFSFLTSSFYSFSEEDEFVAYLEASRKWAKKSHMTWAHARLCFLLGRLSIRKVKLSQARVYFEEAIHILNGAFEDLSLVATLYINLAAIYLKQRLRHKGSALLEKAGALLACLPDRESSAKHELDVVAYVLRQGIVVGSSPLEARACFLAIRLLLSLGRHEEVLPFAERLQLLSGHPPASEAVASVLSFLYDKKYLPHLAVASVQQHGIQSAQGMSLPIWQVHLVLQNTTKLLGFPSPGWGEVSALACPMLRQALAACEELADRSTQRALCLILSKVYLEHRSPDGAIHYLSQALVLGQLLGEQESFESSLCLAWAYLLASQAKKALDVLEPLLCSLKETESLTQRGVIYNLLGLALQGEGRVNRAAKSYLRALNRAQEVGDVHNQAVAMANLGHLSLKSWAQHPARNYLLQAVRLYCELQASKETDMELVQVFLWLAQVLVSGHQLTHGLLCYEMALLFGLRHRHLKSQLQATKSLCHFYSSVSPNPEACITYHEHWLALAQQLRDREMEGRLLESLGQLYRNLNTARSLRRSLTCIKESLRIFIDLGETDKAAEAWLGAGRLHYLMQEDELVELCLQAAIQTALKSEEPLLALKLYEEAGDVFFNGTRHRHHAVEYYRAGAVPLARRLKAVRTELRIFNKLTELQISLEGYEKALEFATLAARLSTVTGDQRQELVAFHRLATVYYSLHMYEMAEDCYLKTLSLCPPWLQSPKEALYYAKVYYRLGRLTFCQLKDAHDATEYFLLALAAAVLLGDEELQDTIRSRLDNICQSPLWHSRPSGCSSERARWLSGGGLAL
The test can be described thus: co-IP; lysates of RPE cells stably expressing BirA alone or BirA-SH3TC2 (20 mM HEPES pH 7.4, 150 mM NaCl, 1 mM EDTA, 1% Ipegal); anti-SH3TC2 antibody (2058) overnight at 4 °C, protein A Sepharose; immunoblot. (In general: A western blot detects proteins with antibodies after separation by electrophoresis.)

The target in test [2] is T1, BirA-SH3TC2. The test can be described thus: proximity ligation; Duolink PLA on RPE cells stably expressing SH3TC2, fixed with 4% PFA; pairs of primary antibodies (anti-SH3TC2, anti-integrin-α6, anti-LAMP1).

As for integrin-α6 (receptor), the binding result with BirA-SH3TC2 [1] and in the test with BirA-SH3TC2 [2] was “binds” each time.
